Data from PubChem BioAssay AID2551 (National Center for Advancing Translational Sciences (NCATS), 2010).
About 17,000 (5.5%) of roughly 310,000 compounds were called active. Inconclusive means that the source gave no clear call. Such entries were picked first, then a sample of the others. Calls follow the shape of the dose curve; as a rule, active = well fitted inhibition curve with a large enough effect; inconclusive = small, poorly fitted or top-dose-only effect, or effect the other way; inactive = no such curve, though single readings can be large or run the other way. Potencies of inconclusive entries are doubtful fits and often do not repeat.

Amino acid sequences for entries named in this document (tags omitted). A change or cut given only in a name is not applied to a line headed by its entry.
UniProt P51450: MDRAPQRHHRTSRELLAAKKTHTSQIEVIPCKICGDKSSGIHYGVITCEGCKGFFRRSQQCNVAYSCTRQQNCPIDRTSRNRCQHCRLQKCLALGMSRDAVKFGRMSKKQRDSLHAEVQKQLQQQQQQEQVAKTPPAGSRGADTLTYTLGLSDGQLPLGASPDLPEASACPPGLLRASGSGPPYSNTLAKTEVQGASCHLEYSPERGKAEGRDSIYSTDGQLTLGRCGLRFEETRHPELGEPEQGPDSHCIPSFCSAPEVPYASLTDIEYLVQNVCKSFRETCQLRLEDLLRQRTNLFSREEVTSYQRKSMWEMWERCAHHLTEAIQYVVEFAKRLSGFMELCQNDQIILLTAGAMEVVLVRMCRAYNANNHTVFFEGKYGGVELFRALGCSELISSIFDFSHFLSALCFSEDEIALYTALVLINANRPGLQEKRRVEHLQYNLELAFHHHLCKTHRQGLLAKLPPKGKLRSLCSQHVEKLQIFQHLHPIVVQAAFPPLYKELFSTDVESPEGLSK

target: Nuclear receptor ROR-gamma (Mus musculus) (UniProt P51450); assay: qHTS for inhibitors of ROR gamma transcriptional activity; conditions: Drosophila S2 Gal4-RORgamma UAS-luciferase reporter, 20 h; activity change, negative = inhibition: at 53.6 µM (top of the series); also: nearly all actives have a fitted effect of over 60% in size
Procedure, shortened: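 ROR gamma transcriptional activity was tracked as Gal4-UAS luciferase output in stably transfected Drosophila Schneider cells, with compound added 1 hr before 700 uM copper sulfate induction and a 20 hr ambient-temperature incubation.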
% is scaled to controls: 0 for no effect and ±100 for the full control effect; potency is read from the fitted curve at half-maximal effect.

Activity change, negative = inhibition, inconclusive:
COc1cccc(CC2(CO)CCCN(Cc3ccccc3-c3ccco3)C2)c1 (configuration not stated) 58.7% [activator]

Activity change, negative = inhibition, inactive:
O=C1C2CCCN2C(=S)N1c1ccc(Cl)cc1 (configuration not stated) -15.1%, O=C(Nc1ccc(O)c(C(=O)O)c1)c1cccc(NC(=O)c2ccco2)c1 -28.5%, Cc1ccc(O)c(NC(=O)c2cc([N+](=O)[O-])ccc2Cl)c1 5.36%, COC(=O)[C@@]1(Cc2ccccc2)[C@H]2c3cc(C(=O)N4CCCC4)n(C)c3C[C@H]2CN1C(=O)c1ccccc1 27.8%, O=C(Nc1ccccc1C(F)(F)F)c1ncn[nH]1 -8.09%, COc1ccc(CN2CCN(Cc3ccc(OC)c(OC)c3OC)CC2)cc1 -0.466%, Cc1c(NC(=O)CSc2ccccc2Cl)c(=O)n(-c2ccccc2)n1C 22.8%, COCC(=O)Nc1ccc([N+](=O)[O-])cc1C -8.84%, COCCOC(=O)C1=C(C)NC(=S)NC1/C=C/c1ccccc1 (configuration not stated) 13.2% [at 10 µM], CCOC(=O)CC(NC(=O)c1cc2cc(Cl)cc(Cl)c2oc1=O)c1cccc([N+](=O)[O-])c1 (configuration not stated) -13.1%, C=CCNC(=O)CN(c1ccc(F)c(Cl)c1)S(C)(=O)=O 6.15%, CN1CCN(c2ncc3nc(-c4cccc(C#N)c4)c(=O)n(CCC#N)c3n2)CC1 -4.34%, CCN(C(=O)C1CCCN(c2nc(-c3ccc(OC)cc3)no2)C1)c1ccc(OC)cc1 (configuration not stated) 38.9%, Cc1ccccc1OCC(=O)N/N=C/c1ccncc1 6.81%, Cc1ccc(OCc2nc(C#N)c(NCc3ccco3)o2)cc1 14.3%, COc1cc2nc(C3CCC3)nc(N3CCN(c4ccccc4OC)CC3)c2cc1OC 1.24%, N#Cc1c(/N=C/c2cc3ccccc3s2)sc2c1CCC2 27.5%

Potency, active:
COc1ccc(NS(=O)(=O)c2cc(NC(=O)c3ccc(C)o3)ccc2N2CCCCC2)cc1 6.31 µM, O=[N+]([O-])c1cccc(/C=N/n2c(C3CCCCC3)n[nH]c2=S)c1 3.98 µM, Cc1ccc(NC(=S)N/N=C/c2ccc(OCCC(C)C)cc2)c(C)c1 6.31 µM, FC(F)(F)c1ccccc1-n1c(CN2CCCCC2)n[nH]c1=S 11.2 µM, CC1CCCN(c2ccc(C(=O)Nc3nnc(C4CC4)s3)cc2[N+](=O)[O-])C1 (configuration not stated) 12.6 µM, O=C(Nc1ncc(Cc2cccc(Cl)c2)s1)c1ccc([N+](=O)[O-])cc1 5.01 µM, CN(C)c1ccc(NC(=S)c2ccccn2)cc1 0.282 µM, O=C(N/N=C/c1ccco1)c1cc(-c2cccc(Br)c2)nc2ccccc12 3.16 µM, S=c1[nH]c(-c2ccc(Br)cc2)cn1CCc1ccccc1 6.31 µM, COc1ccc(NC(=S)NC(=O)/C=C/c2ccco2)c(OC)c1 12.6 µM, Cc1ccc(C(c2cc(Cl)c3cccnc3c2O)N2CCN(C)CC2)cc1 (configuration not stated) 1.26 µM, Cn1c(=O)c(C(=S)NC(=O)C2CC2)c(N)n(Cc2ccccc2)c1=O 1.26 µM, COC(=O)c1sc(NC(=O)c2cc3c(s2)CCCC3)nc1C 1.78 µM, O=[N+]([O-])c1cccc(-c2n[nH]c(=S)n2Cc2ccccc2)c1 7.08 µM, O=c1oc2ccccc2c(O)c1Cc1cc(Cl)c2cccnc2c1O 0.794 µM

Potency, inconclusive:
S=C(c1ccccc1)N(c1ccccc1)c1ccccc1 10 µM [inhibitor, partial curve], Cc1ccc(-c2cc(C(=O)N3CCN(c4ncccn4)CC3)c3ccccc3n2)cc1 35.5 µM [inhibitor, single point], O=c1sc2ccccc2n1CCCOc1ccccc1 8.91 µM [inhibitor, partial curve], COc1cccc(NC(=O)CNC(=O)c2ccc(C)o2)c1 35.5 µM [inhibitor, single point], CC1=Nn2c(nc3sc4c(c3c2=O)CCCC4)SC1 7.94 µM [activator, partial curve], O=C(C1CC(c2ccc(F)cc2)=NO1)N1CCc2ccccc2C1 (configuration not stated) 25.1 µM [activator, single point], O=C(/C=C/c1ccccc1O)c1ccc(Cl)cc1 20 µM [inhibitor, single point], Cc1ccn2cc(C(=O)Nc3nnc(C)s3)nc2c1 0.0447 µM [inhibitor, full curve], CC1=CC(=O)C=C(C)C1=NOc1ccc([N+](=O)[O-])cc1 4.47 µM [inhibitor, full curve, poor fit], COc1ccc(C2=NN(C)C(=NCc3ccccc3)SC2)cc1 10 µM [activator, partial curve, poor fit], O=C(Nc1ccc(Br)cc1)c1ccc(Br)c(S(=O)(=O)Nc2cccnc2)c1 35.5 µM [activator, single point], CN(C)c1ccc(/C=N/n2cnn(Cc3ccccc3Cl)c2=S)cc1 17.8 µM [inhibitor, single point], O=C(Cn1c2c(sc1=O)C1c3ccccc3OCC1CS2)Nc1ccc(Cl)cc1 (configuration not stated) 0.562 µM [activator, full curve], O=C1/C(=C\c2ccc(O)cc2)SC(=S)N1Cc1ccccc1 31.6 µM [activator, single point], Cc1c(Cl)cccc1NC(=O)c1cc(C2CC2)on1 11.2 µM [activator, partial curve, poor fit], COCCCNC(=O)[C@H]1N2C(=O)c3ccccc3C2SC1(C)C (some centres not stated) 10 µM [activator, partial curve, poor fit], OCCCCNCc1ccc(OCc2ccc(Cl)cc2Cl)cc1 17.8 µM [inhibitor, single point], Cc1ccc(S(=O)(=O)c2nnn(-c3cccc(F)c3)c2N)cc1 8.91 µM [activator, partial curve], O=C(NCCC1=CCCCC1)c1ccc([N+](=O)[O-])cc1 28.2 µM [inhibitor, single point]
